Experimental data taken from publication PMC3265435.

The chains behind the UniProt entries cited, without tags or fusion partners. Where a name states a change or a piece, a line headed by the entry shows the natural chain unless it says otherwise.
UniProt P0ACL9: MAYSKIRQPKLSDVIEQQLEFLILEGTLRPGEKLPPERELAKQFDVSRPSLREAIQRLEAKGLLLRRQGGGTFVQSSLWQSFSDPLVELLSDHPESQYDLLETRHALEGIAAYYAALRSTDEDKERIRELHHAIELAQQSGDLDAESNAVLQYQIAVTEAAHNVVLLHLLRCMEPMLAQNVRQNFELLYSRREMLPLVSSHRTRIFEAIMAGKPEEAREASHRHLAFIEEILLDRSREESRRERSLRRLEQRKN

Molecular target: PdhR (his-tagged) (Escherichia coli) (UniProt P0ACL9)
Assay: EMSA
Settings: 0.1 pmol DNA, 54 pmol PdhR, very weak, small amount shifted; 0.1 pmol of each DNA fragment with 54 pmol PdhR; pH and temperature not given; recombinant protein; protein details: His; label: 5'DY682 (strand 1), 5'DY782 (strand 2)

Sequence: TCGGTATGCCTTGTGACTGGCTTGACAAGCTTTTCCTCAGCTCC (double strand) [MraZop]
- binding result: binds more weakly

The exact form of at least one protein or probe is not confirmed. A weaker result is weaker than the reference pair of the same experiment.
